No constants are given. Whether binding was seen depends on the method and setting. In cells and extracts the contact can be indirect. Some entries that bind do so weakly or less than the wild type. For part of these data: Sequences can lack the tags named with a protein.
Key:
Test in all cases: co-IP
[1] = target: T1, Dynamin2 (endogenous) (human (endogenous in HeLa and HEK 293T)) (UniProt P50570)
T1 sequence: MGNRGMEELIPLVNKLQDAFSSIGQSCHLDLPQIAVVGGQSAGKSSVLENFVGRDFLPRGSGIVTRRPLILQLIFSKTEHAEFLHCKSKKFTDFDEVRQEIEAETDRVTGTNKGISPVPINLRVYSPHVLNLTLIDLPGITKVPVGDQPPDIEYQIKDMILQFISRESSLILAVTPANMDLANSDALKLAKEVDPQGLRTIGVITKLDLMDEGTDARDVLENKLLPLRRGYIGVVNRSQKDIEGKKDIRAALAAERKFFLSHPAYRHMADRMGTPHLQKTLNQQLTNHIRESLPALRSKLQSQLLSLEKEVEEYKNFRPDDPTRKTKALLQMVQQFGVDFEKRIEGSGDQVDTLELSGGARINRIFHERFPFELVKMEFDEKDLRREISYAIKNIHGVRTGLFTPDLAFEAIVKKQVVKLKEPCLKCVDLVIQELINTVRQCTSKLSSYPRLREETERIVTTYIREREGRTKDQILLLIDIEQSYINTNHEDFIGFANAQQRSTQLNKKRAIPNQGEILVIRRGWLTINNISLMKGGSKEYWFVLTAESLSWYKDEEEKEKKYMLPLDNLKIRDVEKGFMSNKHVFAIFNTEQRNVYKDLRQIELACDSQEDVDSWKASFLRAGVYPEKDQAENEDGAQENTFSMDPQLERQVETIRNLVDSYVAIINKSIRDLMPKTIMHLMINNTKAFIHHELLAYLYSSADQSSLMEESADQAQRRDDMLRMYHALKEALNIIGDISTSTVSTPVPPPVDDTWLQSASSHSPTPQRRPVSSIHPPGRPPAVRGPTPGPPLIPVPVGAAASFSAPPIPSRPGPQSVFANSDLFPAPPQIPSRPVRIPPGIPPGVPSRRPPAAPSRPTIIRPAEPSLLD

HA-tagged LIMP2 = target: T2, HA-tagged LIMP2 (UniProt Q14108)
T2 sequence: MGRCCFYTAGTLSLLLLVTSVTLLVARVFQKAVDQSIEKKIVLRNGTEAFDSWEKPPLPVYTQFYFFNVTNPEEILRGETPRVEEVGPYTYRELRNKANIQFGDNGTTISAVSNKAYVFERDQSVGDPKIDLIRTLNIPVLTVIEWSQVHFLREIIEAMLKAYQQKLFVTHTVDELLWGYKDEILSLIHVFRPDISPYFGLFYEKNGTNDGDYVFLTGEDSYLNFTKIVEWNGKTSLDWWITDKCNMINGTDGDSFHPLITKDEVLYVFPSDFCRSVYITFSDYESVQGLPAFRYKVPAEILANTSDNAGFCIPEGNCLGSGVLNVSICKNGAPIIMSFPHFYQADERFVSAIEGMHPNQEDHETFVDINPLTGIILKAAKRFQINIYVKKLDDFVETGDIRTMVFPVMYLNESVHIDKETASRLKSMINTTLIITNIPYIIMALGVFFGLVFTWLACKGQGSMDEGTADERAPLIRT

[2] = target: T3, HA-tagged TMEM192 wild type (UniProt Q8IY95)
T3 sequence: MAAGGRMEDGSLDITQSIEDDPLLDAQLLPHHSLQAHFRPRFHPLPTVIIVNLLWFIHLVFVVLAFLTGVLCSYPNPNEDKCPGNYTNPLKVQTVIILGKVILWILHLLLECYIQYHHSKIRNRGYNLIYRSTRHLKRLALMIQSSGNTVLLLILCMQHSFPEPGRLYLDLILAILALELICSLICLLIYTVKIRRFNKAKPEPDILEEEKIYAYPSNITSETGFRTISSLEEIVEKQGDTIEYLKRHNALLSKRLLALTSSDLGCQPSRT

Measured: binding

B1: TBC1D15 (endogenous) (protein, UniProt Q8TC07 1-691)
chain: MAAAGVVSGKIIYEQEGVYIHSSCGKTNDQDGLISGILRVLEKDAEVIVDWRPLDDALDSSSILYARKDSSSVVEWTQAPKERGHRGSEHLNSYEAEWDMVNTVSFKRKPHTNGDAPSHRNGKSKWSFLFSLTDLKSIKQNKEGMGWSYLVFCLKDDVVLPALHFHQGDSKLLIESLEKYVVLCESPQDKRTLLVNCQNKSLSQSFENLLDEPAYGLIQAGLLDRRKLLWAIHHWKKIKKDPYTATMIGFSKVTNYIFDSLRGSDPSTHQRPPSEMADFLSDAIPGLKINQQEEPGFEVITRIDLGERPVVQRREPVSLEEWTKNIDSEGRILNVDNMKQMIFRGGLSHALRKQAWKFLLGYFPWDSTKEERTQLQKQKTDEYFRMKLQWKSISQEQEKRNSRLRDYRSLIEKDVNRTDRTNKFYEGQDNPGLILLHDILMTYCMYDFDLGYVQGMSDLLSPLLYVMENEVDAFWCFASYMDQMHQNFEEQMQGMKTQLIQLSTLLRLLDSGFCSYLESQDSGYLYFCFRWLLIRFKREFSFLDILRLWEVMWTELPCTNFHLLLCCAILESEKQQIMEKHYGFNEILKHINELSMKIDVEDILCKAEAISLQMVKCKELPQAVCEILGLQGSEVTTPDSDVGEDENVVMTPCPTSAFQSNALPTLSASGARNDSPTQIPVSSDVCRLTPA
binds: all assays above
